Paper PMC516168
Results are given in words; binding and its absence hold for the method and conditions named. In cells and extracts the contact can be indirect. Some entries that bind do so weakly or less than the wild type. Sequences can lack the tags named with a protein.

Sequences of proteins named here, by UniProt entry; tags and fusion partners are left off.
UniProt Q8GUB5: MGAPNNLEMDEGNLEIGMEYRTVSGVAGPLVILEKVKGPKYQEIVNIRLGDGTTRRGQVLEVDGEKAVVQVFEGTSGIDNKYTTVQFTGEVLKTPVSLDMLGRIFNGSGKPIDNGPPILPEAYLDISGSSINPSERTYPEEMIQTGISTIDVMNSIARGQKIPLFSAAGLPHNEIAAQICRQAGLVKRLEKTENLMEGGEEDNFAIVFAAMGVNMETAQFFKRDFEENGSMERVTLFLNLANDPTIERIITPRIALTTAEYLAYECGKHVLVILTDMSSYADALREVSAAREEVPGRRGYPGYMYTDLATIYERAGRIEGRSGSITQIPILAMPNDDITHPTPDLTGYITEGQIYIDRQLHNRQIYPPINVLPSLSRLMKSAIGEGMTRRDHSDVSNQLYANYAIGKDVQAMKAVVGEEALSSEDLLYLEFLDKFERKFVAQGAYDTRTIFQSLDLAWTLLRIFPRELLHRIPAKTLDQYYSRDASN

Target: T1, Mc-VHA-H fused to YFP (M. crystallinum) (UniProt Q8GUB3)
T1 sequence: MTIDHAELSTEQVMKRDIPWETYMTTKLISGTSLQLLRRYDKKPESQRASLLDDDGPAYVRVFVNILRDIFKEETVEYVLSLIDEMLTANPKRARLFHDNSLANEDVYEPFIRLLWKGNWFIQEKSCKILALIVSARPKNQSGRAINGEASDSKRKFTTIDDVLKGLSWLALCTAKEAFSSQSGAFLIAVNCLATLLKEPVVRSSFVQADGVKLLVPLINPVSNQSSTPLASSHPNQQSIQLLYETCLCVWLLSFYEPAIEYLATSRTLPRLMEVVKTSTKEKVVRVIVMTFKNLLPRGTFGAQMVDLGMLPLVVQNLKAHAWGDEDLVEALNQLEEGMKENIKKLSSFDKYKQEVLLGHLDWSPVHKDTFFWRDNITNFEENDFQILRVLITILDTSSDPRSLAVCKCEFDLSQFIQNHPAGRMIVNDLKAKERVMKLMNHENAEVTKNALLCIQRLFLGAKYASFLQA
Experiment: FRET or BRET; in vivo FRET (CFP donor, YFP acceptor) in co-transformed onion epidermis cells; emission spectra before and after photobleaching of the acceptor

binding: binds weakly
Substance: Mc-VHA-B fused to CFP (from UniProt Q8GUB5 1-487)
